The values below come from patent EP4725969A1 (Latticon (Suzhou) Biopharmaceuticals Co., Ltd., dated 2024).

No constants are given. Whether binding was seen depends on the method and setting. Some binding calls cover weakened binding; strength is not graded here.

Experiment [1] deals with recombinant human HER2 extracellular domain protein (human) (UniProt P04626). Nature of the experiment: ELISA, coated HER2 ECD.
The target of experiment [2] is T1, human HER2 expressed on tumor cells (human, UniProt P04626 23-1255).
T1 construct: whole, on cells; Cell line is named in each row's assay
Nature of the experiment: flow cytometry, BT474 cells.

Experiment [3] concerns the target T1, human HER2 expressed on tumor cells. Nature of the experiment: flow cytometry, RT-112 cells.
Experiment [4] shares this target. Nature of the experiment: flow cytometry, RT-112 cells, 10 µg/mL.
Experiment [5] has the same target. Nature of the experiment: flow cytometry, BT474 cells, 10 µg/mL.

B1: mAb2128 (antibody, V domains shown)
VH: EVQLQQSGPELVKPGASVKIPCKASGYTFTDYNMDWVKQSHGKSLEWIGDINPNNGGTIYNQKFKGKATLTVDKSSSTAYMELRSLTSEDTAVYYCARYGSGYGGFAYWGQGTLVTVSS
VL: DIVLTQSPTTMAASPGEKITITCSASSSISSNYLHWYQQKPGFSPKLLIYRTSNLASGVPARFSGSGSGTSYSLTIGTMEAEDVATYYCQQGSSIPRTFGGGTKLEIK
notes: Chimeric human IgG1/Cκ
As to B1, in experiment [1], the binding result is “binds”.

B2: Hu2117-HK203 (Fc fusion)
scFv: EVQLVESGGGLVQPGGSLRLSCAASGFTYSSYGMSWVRQAPGKGLEWVASISGGGNYAKYVDSVKGRFTISRDNSKNTLYLQMNSLRAEDTAVYYCARDYVGFFDVWGQGTLVTVSSGGGGSGGGGSGGGGSDIQMTQSPSSLSASVGDRVTITCRSSQSLVHSNRNTYLHWYQQKPGKAPKLLIYKVSNRFSGVPSRFSGSGSGTDFTLTISSLQPEDFATYFCSQSTHVPYTFGQGTKVEIK
notes: scFv-hIgG1 Fc; not shown: human IgG1 Fc
For the molecule B2, the binding entry in experiment [2], in experiment [3], in experiment [4] and in experiment [5] was “binds” in each case.

B3: Hu2117-HK306 (Fc fusion, not shown: a dimerising Fc or GST)
scFv: EVQLVESGGGLVQPGGSLRLSCAASGFTYSSYGMSWVRQAPGKGLEWVASISGGGNYAKYVRSVKGRFTISRDNSKNTLYLQMNSLRAEDTAVYYCARDYVGFFDVWGQGTLVTVSSGGGGSGGGGSGGGGSDIQMTQSPSSLSASVGDRVTITCRSSQSLVHSNRNTYLHWYQQKPGKAPKLLIYKVSNRFSGVPSRFSGSGSGTDFTLTISSLQPEDFATYFCSQSTHVPYTFGQGTKVEIK
With B3, the binding result in experiment [4] is reported as “binds”.

B4: Hu2117-HK202 (Fc fusion, not shown: a dimerising Fc or GST)
scFv: EVQLVESGGGLVQPGGSLRLSCAASGFTYSSYGMSWVRQAPGKGLEWVASISGGGSYTKYPDSVKGRFTISRDNSKNTLYLQMNSLRAEDTAVYYCARDYVGFFDVWGQGTLVTVSSGGGGSGGGGSGGGGSDIQMTQSPSSLSASVGDRVTITCRSSQSLVHSNRNTYLHWYQQKPGKAPKLLIYKVSNRFSGVPSRFSGSGSGTDFTLTISSLQPEDFATYFCSQSTHVPYTFGQGTKVEIK
For B4, the binding result in experiment [4] and in experiment [5] was “binds” throughout.

B5: Hu2117-HK301 (Fc fusion, not shown: a dimerising Fc or GST)
scFv: EVQLVESGGGLVQPGGSLRLSCAASGFTYSSYGMSWVRQAPGKGLEWVASISGGGNYAKYVGSVKGRFTISRDNSKNTLYLQMNSLRAEDTAVYYCARDYVGFFDVWGQGTLVTVSSGGGGSGGGGSGGGGSDIQMTQSPSSLSASVGDRVTITCRSSQSLVHSNRNTYLHWYQQKPGKAPKLLIYKVSNRFSGVPSRFSGSGSGTDFTLTISSLQPEDFATYFCSQSTHVPYTFGQGTKVEIK
On to B5, for which the binding entry in experiment [4] was “binds”.

B6: Hu2117-HK305 (Fc fusion, not shown: a dimerising Fc or GST)
scFv: EVQLVESGGGLVQPGGSLRLSCAASGFTYSSYGMSWVRQAPGKGLEWVASISGGGNYAKYVQSVKGRFTISRDNSKNTLYLQMNSLRAEDTAVYYCARDYVGFFDVWGQGTLVTVSSGGGGSGGGGSGGGGSDIQMTQSPSSLSASVGDRVTITCRSSQSLVHSNRNTYLHWYQQKPGKAPKLLIYKVSNRFSGVPSRFSGSGSGTDFTLTISSLQPEDFATYFCSQSTHVPYTFGQGTKVEIK
Take B6: the binding entry in experiment [4] is “binds”.

B7: Hu2117-HK309 (Fc fusion)
scFv: EVQLVESGGGLVQPGGSLRLSCAASGFTYSSYGMSWVRQAPGKGLEWVASISGGGNYAKYVDKVKGRFTISRDNSKNTLYLQMNSLRAEDTAVYYCARDYVGFFDVWGQGTLVTVSSGGGGSGGGGSGGGGSDIQMTQSPSSLSASVGDRVTITCRSSQSLVHSNRNTYLHWYQQKPGKAPKLLIYKVSNRFSGVPSRFSGSGSGTDFTLTISSLQPEDFATYFCSQSTHVPYTFGQGTKVEIK
notes: as for B2
As to B7, the binding entry in experiment [2], in experiment [3] and in experiment [4] was “binds” each time.

B8: Hu2117HK-Mu01 (Fc fusion)
scFv: EVQLVESGGGLVQPGGSLRLSCAASGFTYSSYGMSWVRQAPGKGLEWVASISGGGSYTKYPDSVKGRFTISRDNSKNTLYLQMNSLRAEDTAVYYCARDYAGFFDVWGQGTLVTVSSGGGGSGGGGSGGGGSDIQMTQSPSSLSASVGDRVTITCRSSQSLVHSNGNTYLHWYQQKPGKSPKLLIYKVSNRFSGVPSRFSGSGSGTDFTLTISSLQPEDFATYFCSQSTHVPYTFGQGTKVEIK
notes: as for B2
For B8, the binding entry in experiment [2] and in experiment [3] was “binds” throughout.

B9: Hu2117-HK303 (Fc fusion)
scFv: EVQLVESGGGLVQPGGSLRLSCAASGFTYSSYGMSWVRQAPGKGLEWVASISGGGNYAKYVESVKGRFTISRDNSKNTLYLQMNSLRAEDTAVYYCARDYVGFFDVWGQGTLVTVSSGGGGSGGGGSGGGGSDIQMTQSPSSLSASVGDRVTITCRSSQSLVHSNRNTYLHWYQQKPGKAPKLLIYKVSNRFSGVPSRFSGSGSGTDFTLTISSLQPEDFATYFCSQSTHVPYTFGQGTKVEIK
notes: as for B2
For the molecule B9, the binding entry in experiment [2], in experiment [3] and in experiment [4] was “binds” throughout.

B10: Hu2117HK-Mu04 (Fc fusion)
scFv: EVQLVESGGGLVQPGGSLRLSCAASGFTYSSYGMSWVRQAPGKGLEWVASISGGGSYTKYPDSVKGRFTISRDNSKNTLYLQMNSLRAEDTAVYYCARDYAGFFDVWGQGTLVTVSSGGGGSGGGGSGGGGSDIQLTQSPSSLSASVGDRVTITCRSSQSLVHSNGNTYLHWYQQKPGKAPKLLIYKVSNRFSGVPSRFSGSGSGTDFTLTISSLQPEDFATYFCSQSTHVPYTFGQGTKVEIK
notes: as for B2
Consider B10, for which the binding entry in experiment [2] and in experiment [3] was “binds” throughout.

B11: Hu2117HK-Mu02 (Fc fusion)
scFv: EVQLVESGGGLVQPGGSLRLSCAASGFTYSSYGMSWVRQAPGKGLEWVASISGGGSYTKYPDSVKGRFTISRDNSKNTLYLQMNSLRAEDTAVYYCARDYAGFFDVWGQGTLVTVSSGGGGSGGGGSGGGGSDIQMTQSPSSLSASVGDRVTITCRSSQSLVHSNGNTYLHWYQQKPGKAPKLLIYKVSNRFSGVPSRFSGSGSGTDFTLTISSLQPEDFAVYFCSQSTHVPYTFGQGTKVEIK
notes: as for B2
Regarding B11, the binding entry in experiment [2] and in experiment [3] was “binds” each time.

B12: Hu2117-HK310 (Fc fusion)
scFv: EVQLVESGGGLVQPGGSLRLSCAASGFTYSSYGMSWVRQAPGKGLEWVASISGGGNYAKYVDNVKGRFTISRDNSKNTLYLQMNSLRAEDTAVYYCARDYVGFFDVWGQGTLVTVSSGGGGSGGGGSGGGGSDIQMTQSPSSLSASVGDRVTITCRSSQSLVHSNRNTYLHWYQQKPGKAPKLLIYKVSNRFSGVPSRFSGSGSGTDFTLTISSLQPEDFATYFCSQSTHVPYTFGQGTKVEIK
notes: as for B2
On to B12, for which the binding result in experiment [2], in experiment [3] and in experiment [4] was “binds” in each case.

B13: Hu2117-HK304 (Fc fusion)
scFv: EVQLVESGGGLVQPGGSLRLSCAASGFTYSSYGMSWVRQAPGKGLEWVASISGGGNYAKYVPSVKGRFTISRDNSKNTLYLQMNSLRAEDTAVYYCARDYVGFFDVWGQGTLVTVSSGGGGSGGGGSGGGGSDIQMTQSPSSLSASVGDRVTITCRSSQSLVHSNRNTYLHWYQQKPGKAPKLLIYKVSNRFSGVPSRFSGSGSGTDFTLTISSLQPEDFATYFCSQSTHVPYTFGQGTKVEIK
notes: as for B2
Take B13: the binding entry in experiment [2], in experiment [3] and in experiment [4] was “binds” throughout.

B14: Hu2117HK-Mu03 (Fc fusion)
scFv: EVQLVESGGGLVQPGGSLRLSCAASGFTYSSYGMSWVRQAPGKGLEWVASISGGGSYTKYPDSVKGRFTISRDNSKNTLYLQMNSLRAEDTAVYYCARDYAGFFDVWGQGTLVTVSSGGGGSGGGGSGGGGSDVQMTQSPSSLSASVGDRVTITCRSSQSLVHSNGNTYLHWYQQKPGKAPKLLIYKVSNRFSGVPSRFSGSGSGTDFTLTISSLQPEDFATYFCSQSTHVPYTFGQGTKVEIK
notes: as for B2
Take B14: the binding entry in experiment [2] and in experiment [3] was “binds” each time.
